Paper PMC11169864 (Frontiers in Chemistry, 2024)

What was measured:
[1] = general procedure: Fmoc solid-phase peptide synthesis; Fmoc-NH-SAL-PEG resin (Rink amide); DIC-HOBt; HBTU/DIEA; DIC/HOOBt; conditions: for isolated mass / isolated yield: whole synthesis
[2] = general procedure: Fmoc solid-phase peptide synthesis; Fmoc-NH-SAL-PEG resin; DIC-HOBt; HBTU/DIEA; DIC/HOOBt; conditions: whole synthesis, scale 11 μmol resin portion cleaved
[3] = scale 7.6 μmol resin portion cleaved
[4] = scale 6.3 μmol resin portion cleaved
[5] = scale 8.8 μmol resin portion cleaved

cyclo(CRGDC[dP]) (cysteine pairing not given here)
cyclisation yield ([1]; cyclisation step, on linear precursor 2a): 59%

H-Cys-Arg-Gly-Asp-Cys-D-Pro-OCH2CONH2
isolated mass [2]: 2.6 mg
isolated yield [2]: 34%

H-D-Cys-Arg-Gly-Asp-Cys-D-Pro-OCH2CONH2
isolated mass [1, 3]: 1.8 mg
isolated yield [1, 3]: 31%

H-Cys-Arg-Gly-Asp-D-Cys-Pro-OCH2CONH2
isolated mass [1, 4]: 1.3 mg
isolated yield [1, 4]: 29%

H-D-Cys-Arg-Gly-Asp-D-Cys-Pro-OCH2CONH2
isolated mass [1, 5]: 1.8 mg
isolated yield [1, 5]: 29%

Non-standard residues stand in square brackets, D forms with d.
